Data published in publication PMC9337661.
These are yes or no findings as the source states them, for the method shown. Binding seen in cells or lysates may run through a third protein. Here binding means that the protein was enriched with, or labelled near, the bait; the list need not be complete.

Assays:
[1] = biological target: SssP1-NR_(1-1298) (Streptococcus suis strain CZ130302); assay: affinity purification with mass spectrometry; His pull-down (Pierce kit): 500 ug His protein on Ni beads, 1 mg HBMEC cell total protein, shaking overnight at 4°C; beads alone as blank control; Q Exactive mass spectrometer; only the target purified
[2] = biological target: SssP1-NR_(1225-2214) (Streptococcus suis strain CZ130302); assay: as above

B1: Keratin, type I cytoskeletal 9 (protein, UniProt P35527 1-623)
chain: MSCRQFSSSYLSRSGGGGGGGLGSGGSIRSSYSRFSSSGGGGGGGRFSSSSGYGGGSSRVCGRGGGGSFGYSYGGGSGGGFSASSLGGGFGGGSRGFGGASGGGYSSSGGFGGGFGGGSGGGFGGGYGSGFGGFGGFGGGAGGGDGGILTANEKSTMQELNSRLASYLDKVQALEEANNDLENKIQDWYDKKGPAAIQKNYSPYYNTIDDLKDQIVDLTVGNNKTLLDIDNTRMTLDDFRIKFEMEQNLRQGVDADINGLRQVLDNLTMEKSDLEMQYETLQEELMALKKNHKEEMSQLTGQNSGDVNVEINVAPGKDLTKTLNDMRQEYEQLIAKNRKDIENQYETQITQIEHEVSSSGQEVQSSAKEVTQLRHGVQELEIELQSQLSKKAALEKSLEDTKNRYCGQLQMIQEQISNLEAQITDVRQEIECQNQEYSLLLSIKMRLEKEIETYHNLLEGGQEDFESSGAGKIGLGGRGGSGGSYGRGSRGGSGGSYGGGGSGGGYGGGSGSRGGSGGSYGGGSGSGGGSGGGYGGGSGGGHSGGSGGGHSGGSGGNYGGGSGSGGGSGGGYGGGSGSRGGSGGSHGGGSGFGGESGGSYGGGEEASGSGGGYGGGSGKSSHS
binding [1]: binds
binding [2]: binds
